The data set deals with Normal human articular chondrocytes. The data set can be described thus: Cytotoxicity to chondrogenic pellets (CellTiter-Blue). For orientation: Resazurin is reduced to fluorescent resorufin, in cell work by metabolically active cells.

`NCCCC(O)(P(=O)(O)O)P(=O)(O)O` [Alendronate, Alendronate sodium]: the “Non-toxic range (Chondrocyte)” value lay within 0.625 to 40 M.
